Results are given in words; binding and its absence hold for the method and conditions named. Binding seen in cells or lysates may run through a third protein. Some binding calls cover weakened binding; strength is not graded here. For some assays here: Tags and fused reporters may be left off the sequences shown.
Columns and labels:
hFSHR-Rluc8 (human) = target: T1, hFSHR-Rluc8 (human) (UniProt P23945); assay: FRET or BRET; real-time BRET kinetics in live HEK 293 cells transiently co-expressing receptor-Rluc8 (donor) and yPET-β-arrestin 2 (acceptor); basal (vehicle) and after 10 nM hFSH or hCG; coelenterazine h 5 μM; PBS-HEPES 10 mM; 96-well format
T1 sequence: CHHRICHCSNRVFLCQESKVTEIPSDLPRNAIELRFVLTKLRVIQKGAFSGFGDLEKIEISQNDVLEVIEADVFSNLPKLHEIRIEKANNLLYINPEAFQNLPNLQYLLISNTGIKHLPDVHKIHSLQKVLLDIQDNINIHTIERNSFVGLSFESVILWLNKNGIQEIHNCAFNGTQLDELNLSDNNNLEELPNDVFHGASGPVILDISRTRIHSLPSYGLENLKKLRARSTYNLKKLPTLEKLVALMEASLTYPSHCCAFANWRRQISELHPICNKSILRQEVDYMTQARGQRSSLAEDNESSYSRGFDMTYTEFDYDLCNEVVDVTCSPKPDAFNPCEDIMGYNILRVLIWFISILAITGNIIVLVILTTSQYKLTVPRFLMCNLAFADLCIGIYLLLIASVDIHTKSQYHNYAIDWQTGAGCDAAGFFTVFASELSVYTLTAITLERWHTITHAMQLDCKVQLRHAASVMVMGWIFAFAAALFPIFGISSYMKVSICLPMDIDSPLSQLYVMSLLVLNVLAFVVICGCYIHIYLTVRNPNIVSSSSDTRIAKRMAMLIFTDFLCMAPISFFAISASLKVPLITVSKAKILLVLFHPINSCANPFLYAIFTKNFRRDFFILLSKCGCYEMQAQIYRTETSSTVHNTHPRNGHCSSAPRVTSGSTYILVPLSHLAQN

Sequences of proteins named here, by UniProt entry; tags and fusion partners are left off. Residues count along the entry.
UniProt P22888, residues 27-699: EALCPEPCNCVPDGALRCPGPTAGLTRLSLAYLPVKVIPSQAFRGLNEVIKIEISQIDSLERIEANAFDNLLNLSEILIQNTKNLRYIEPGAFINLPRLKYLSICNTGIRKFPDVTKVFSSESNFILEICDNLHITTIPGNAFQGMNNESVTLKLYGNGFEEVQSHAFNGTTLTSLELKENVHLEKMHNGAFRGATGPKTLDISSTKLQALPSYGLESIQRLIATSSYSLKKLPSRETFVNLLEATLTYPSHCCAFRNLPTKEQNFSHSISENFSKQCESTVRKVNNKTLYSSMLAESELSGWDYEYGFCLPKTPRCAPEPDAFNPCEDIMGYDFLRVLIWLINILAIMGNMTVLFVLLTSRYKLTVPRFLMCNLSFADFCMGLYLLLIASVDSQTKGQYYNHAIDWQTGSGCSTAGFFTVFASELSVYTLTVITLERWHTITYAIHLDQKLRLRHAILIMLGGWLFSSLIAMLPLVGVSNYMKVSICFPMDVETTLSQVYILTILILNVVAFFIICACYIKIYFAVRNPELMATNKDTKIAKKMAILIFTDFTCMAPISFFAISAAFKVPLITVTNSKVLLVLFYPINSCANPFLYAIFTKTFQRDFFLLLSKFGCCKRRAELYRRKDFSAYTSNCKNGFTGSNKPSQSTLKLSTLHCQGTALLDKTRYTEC
UniProt P32121: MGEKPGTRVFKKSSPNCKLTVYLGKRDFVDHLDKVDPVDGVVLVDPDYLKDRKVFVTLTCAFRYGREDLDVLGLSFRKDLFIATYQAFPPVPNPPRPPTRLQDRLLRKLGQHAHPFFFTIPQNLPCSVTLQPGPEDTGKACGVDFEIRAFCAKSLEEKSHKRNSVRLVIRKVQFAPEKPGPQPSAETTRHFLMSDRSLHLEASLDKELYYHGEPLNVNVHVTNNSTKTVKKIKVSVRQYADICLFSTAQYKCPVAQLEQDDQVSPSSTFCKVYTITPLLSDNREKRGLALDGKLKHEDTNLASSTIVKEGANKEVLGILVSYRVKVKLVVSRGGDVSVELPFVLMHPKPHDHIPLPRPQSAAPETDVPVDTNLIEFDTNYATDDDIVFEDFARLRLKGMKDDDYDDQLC

hLHR-Rluc8 (human) = hLHR-Rluc8 (human) (UniProt P22888); assay: as above

- binding (hFSHR-Rluc8 (human)): binds
- binding (hLHR-Rluc8 (human)): binds
Substance: yPET-β-arrestin 2 (from UniProt P32121 1-409)
